These are yes or no findings as the source states them, for the method shown. In cells and extracts the contact can be indirect. Some results given as binding are weak or reduced against the parent protein; the word gives no strength. For some of these results: Where a sequence is shown, tags or fusion partners need not be part of it.

By UniProt entry, the sequences of proteins in these tests, tags left out.
UniProt Q9ESK9: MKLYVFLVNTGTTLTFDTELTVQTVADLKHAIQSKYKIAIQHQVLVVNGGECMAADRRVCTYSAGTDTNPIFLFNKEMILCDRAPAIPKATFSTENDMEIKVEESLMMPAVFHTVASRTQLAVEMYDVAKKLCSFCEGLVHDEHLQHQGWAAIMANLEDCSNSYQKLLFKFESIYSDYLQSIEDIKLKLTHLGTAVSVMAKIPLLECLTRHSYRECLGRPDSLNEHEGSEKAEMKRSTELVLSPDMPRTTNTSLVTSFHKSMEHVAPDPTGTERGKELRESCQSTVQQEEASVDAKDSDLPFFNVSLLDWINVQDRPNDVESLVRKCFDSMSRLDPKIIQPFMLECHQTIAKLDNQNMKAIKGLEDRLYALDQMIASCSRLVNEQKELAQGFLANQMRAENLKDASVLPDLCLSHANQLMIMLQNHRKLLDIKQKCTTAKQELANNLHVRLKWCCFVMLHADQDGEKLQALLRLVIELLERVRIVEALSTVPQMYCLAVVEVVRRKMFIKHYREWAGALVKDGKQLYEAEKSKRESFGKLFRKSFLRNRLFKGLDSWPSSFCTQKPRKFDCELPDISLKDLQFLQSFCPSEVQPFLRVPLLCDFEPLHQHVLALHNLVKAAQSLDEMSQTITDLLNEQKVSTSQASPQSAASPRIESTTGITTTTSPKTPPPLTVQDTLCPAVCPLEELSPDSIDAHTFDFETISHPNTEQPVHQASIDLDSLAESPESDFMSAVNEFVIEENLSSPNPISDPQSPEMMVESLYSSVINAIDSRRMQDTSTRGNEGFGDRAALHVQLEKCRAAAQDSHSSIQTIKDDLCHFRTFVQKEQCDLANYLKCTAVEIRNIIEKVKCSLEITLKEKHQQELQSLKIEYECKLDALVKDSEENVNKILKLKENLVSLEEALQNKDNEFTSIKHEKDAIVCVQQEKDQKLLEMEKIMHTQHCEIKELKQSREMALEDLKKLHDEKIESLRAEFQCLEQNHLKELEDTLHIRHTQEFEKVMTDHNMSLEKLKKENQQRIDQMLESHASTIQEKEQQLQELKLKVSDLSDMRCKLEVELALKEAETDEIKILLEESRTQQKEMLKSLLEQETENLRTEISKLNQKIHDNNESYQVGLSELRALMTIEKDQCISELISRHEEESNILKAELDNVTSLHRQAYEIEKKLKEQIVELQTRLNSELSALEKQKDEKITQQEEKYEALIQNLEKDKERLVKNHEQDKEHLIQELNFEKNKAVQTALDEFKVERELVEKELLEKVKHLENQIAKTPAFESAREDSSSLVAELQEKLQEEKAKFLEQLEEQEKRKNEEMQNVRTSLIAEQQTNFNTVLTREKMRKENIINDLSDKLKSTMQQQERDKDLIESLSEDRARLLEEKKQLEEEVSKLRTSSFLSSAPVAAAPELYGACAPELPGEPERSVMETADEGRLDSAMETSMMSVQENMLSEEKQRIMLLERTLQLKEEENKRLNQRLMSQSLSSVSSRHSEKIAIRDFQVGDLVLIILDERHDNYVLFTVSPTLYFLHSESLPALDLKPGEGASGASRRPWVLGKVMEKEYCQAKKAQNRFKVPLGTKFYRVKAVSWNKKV
UniProt Q6PF93: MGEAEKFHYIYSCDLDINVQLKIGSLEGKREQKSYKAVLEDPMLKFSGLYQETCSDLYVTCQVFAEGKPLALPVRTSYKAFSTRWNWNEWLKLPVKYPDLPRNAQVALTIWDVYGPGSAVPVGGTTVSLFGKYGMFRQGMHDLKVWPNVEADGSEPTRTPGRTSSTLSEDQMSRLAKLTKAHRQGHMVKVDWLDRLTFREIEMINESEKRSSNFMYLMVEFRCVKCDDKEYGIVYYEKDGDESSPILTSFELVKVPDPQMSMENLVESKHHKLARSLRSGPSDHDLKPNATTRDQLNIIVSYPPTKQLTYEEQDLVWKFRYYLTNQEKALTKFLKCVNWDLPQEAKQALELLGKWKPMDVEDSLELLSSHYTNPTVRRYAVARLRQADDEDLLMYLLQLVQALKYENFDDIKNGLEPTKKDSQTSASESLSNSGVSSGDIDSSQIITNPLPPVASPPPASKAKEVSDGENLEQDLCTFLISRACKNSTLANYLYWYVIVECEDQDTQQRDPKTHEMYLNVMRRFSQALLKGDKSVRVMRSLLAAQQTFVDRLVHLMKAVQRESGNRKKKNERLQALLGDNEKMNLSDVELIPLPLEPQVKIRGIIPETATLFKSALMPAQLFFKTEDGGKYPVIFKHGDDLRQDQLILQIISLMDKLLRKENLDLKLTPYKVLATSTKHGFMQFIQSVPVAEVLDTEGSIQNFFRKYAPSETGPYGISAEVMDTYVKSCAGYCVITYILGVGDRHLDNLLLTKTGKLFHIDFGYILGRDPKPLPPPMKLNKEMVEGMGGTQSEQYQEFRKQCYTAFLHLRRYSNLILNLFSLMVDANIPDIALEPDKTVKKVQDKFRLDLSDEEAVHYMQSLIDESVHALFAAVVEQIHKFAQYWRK

In article PMC5148922 one finds binding data, which are given here for six molecules.

For assay [1], the target named is T1, ULK1 (endogenous, MEF cells) (mouse (endogenous in MEF)) (UniProt O70405).
T1 sequence: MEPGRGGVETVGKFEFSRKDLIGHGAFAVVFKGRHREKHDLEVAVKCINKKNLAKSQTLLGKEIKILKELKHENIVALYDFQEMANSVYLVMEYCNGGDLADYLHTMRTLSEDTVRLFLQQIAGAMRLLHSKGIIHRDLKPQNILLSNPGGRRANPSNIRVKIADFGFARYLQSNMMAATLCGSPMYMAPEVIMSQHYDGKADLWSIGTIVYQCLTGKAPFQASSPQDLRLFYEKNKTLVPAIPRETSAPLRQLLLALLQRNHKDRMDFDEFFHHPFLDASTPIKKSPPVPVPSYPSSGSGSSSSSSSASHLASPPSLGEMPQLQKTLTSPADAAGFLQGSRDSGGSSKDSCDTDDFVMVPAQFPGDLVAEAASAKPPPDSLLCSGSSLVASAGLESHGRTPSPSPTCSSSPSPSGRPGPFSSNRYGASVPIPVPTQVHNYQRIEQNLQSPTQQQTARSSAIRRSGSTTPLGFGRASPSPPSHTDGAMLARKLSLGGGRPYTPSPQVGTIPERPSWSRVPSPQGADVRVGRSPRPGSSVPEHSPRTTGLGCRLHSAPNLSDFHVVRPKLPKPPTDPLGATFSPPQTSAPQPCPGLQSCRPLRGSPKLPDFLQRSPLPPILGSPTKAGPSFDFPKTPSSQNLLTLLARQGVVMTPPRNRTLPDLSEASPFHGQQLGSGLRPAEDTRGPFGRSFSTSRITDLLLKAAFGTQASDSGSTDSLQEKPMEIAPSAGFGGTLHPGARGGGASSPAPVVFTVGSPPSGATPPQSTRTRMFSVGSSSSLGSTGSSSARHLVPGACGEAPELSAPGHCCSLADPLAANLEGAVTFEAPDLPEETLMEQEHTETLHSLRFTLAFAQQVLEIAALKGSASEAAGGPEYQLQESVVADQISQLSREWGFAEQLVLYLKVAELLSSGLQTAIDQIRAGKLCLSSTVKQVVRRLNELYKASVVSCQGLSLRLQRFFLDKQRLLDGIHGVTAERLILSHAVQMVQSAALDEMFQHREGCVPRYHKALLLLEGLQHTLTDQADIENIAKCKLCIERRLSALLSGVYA
As to the kind of experiment: co-IP; endogenous proteins; ULK1/2 WT and DKO MEFs treated with MG132, IP with ULK1 antibody.

For assay [2], the target named is ATG14 (endogenous, mouse) (mouse (endogenous in MEF and mouse cortex)) (UniProt Q8CDJ3). The assay is described as follows: co-IP; endogenous proteins; MEF cells treated or not with Torin 1 for 60 min; lysates subject to IP using antibody against ATG14.
For assay [3] the target is unchanged. As to the kind of experiment: co-IP; endogenous proteins; 500 ug protein of post-nuclear supernatant from the cortex of Q175 mice, antibodies against ATG14 (MBL) overnight at 4 C, Dynabeads; part of the beads for western blotting.
The next assay concerns the target ATG14-GFP (UniProt Q6ZNE5). The assay is described as follows: co-IP; Myc-ULK1 and ATG14-GFP overexpressed in HEK cells, pulled down using antibodies against GFP; IP buffer 10 mM Tris-HCl pH 7.5, 2 mM EDTA, 100 mM NaCl, 1% NP-40.

In the case of “FIP200 (endogenous, MEF cells) (from UniProt Q9ESK9 1-1588)”, the binding entry in assay [1] was “binds”.

In the case of “NRBF2 (endogenous, MEF cells) (from UniProt Q8VCQ3 1-287)”, the binding result in assay [2] was “binds”.

As for “Vps34 (endogenous, mouse) (from UniProt Q6PF93 1-887) (enzyme)”, the binding entry in assay [2] and in assay [3] was “binds” throughout.

B1: Myc-ULK1 wildtype (enzyme, UniProt O70405 1-1051)
chain: MEPGRGGVETVGKFEFSRKDLIGHGAFAVVFKGRHREKHDLEVAVKCINKKNLAKSQTLLGKEIKILKELKHENIVALYDFQEMANSVYLVMEYCNGGDLADYLHTMRTLSEDTVRLFLQQIAGAMRLLHSKGIIHRDLKPQNILLSNPGGRRANPSNIRVKIADFGFARYLQSNMMAATLCGSPMYMAPEVIMSQHYDGKADLWSIGTIVYQCLTGKAPFQASSPQDLRLFYEKNKTLVPAIPRETSAPLRQLLLALLQRNHKDRMDFDEFFHHPFLDASTPIKKSPPVPVPSYPSSGSGSSSSSSSASHLASPPSLGEMPQLQKTLTSPADAAGFLQGSRDSGGSSKDSCDTDDFVMVPAQFPGDLVAEAASAKPPPDSLLCSGSSLVASAGLESHGRTPSPSPTCSSSPSPSGRPGPFSSNRYGASVPIPVPTQVHNYQRIEQNLQSPTQQQTARSSAIRRSGSTTPLGFGRASPSPPSHTDGAMLARKLSLGGGRPYTPSPQVGTIPERPSWSRVPSPQGADVRVGRSPRPGSSVPEHSPRTTGLGCRLHSAPNLSDFHVVRPKLPKPPTDPLGATFSPPQTSAPQPCPGLQSCRPLRGSPKLPDFLQRSPLPPILGSPTKAGPSFDFPKTPSSQNLLTLLARQGVVMTPPRNRTLPDLSEASPFHGQQLGSGLRPAEDTRGPFGRSFSTSRITDLLLKAAFGTQASDSGSTDSLQEKPMEIAPSAGFGGTLHPGARGGGASSPAPVVFTVGSPPSGATPPQSTRTRMFSVGSSSSLGSTGSSSARHLVPGACGEAPELSAPGHCCSLADPLAANLEGAVTFEAPDLPEETLMEQEHTETLHSLRFTLAFAQQVLEIAALKGSASEAAGGPEYQLQESVVADQISQLSREWGFAEQLVLYLKVAELLSSGLQTAIDQIRAGKLCLSSTVKQVVRRLNELYKASVVSCQGLSLRLQRFFLDKQRLLDGIHGVTAERLILSHAVQMVQSAALDEMFQHREGCVPRYHKALLLLEGLQHTLTDQADIENIAKCKLCIERRLSALLSGVYA
For B1, the binding entry in the assay with ATG14-GFP was “binds”.

B2: Myc-ULK1 kinase inhibited (K46I) mutant (enzyme, UniProt O70405 1-1051)
chain: MEPGRGGVETVGKFEFSRKDLIGHGAFAVVFKGRHREKHDLEVAVICINKKNLAKSQTLLGKEIKILKELKHENIVALYDFQEMANSVYLVMEYCNGGDLADYLHTMRTLSEDTVRLFLQQIAGAMRLLHSKGIIHRDLKPQNILLSNPGGRRANPSNIRVKIADFGFARYLQSNMMAATLCGSPMYMAPEVIMSQHYDGKADLWSIGTIVYQCLTGKAPFQASSPQDLRLFYEKNKTLVPAIPRETSAPLRQLLLALLQRNHKDRMDFDEFFHHPFLDASTPIKKSPPVPVPSYPSSGSGSSSSSSSASHLASPPSLGEMPQLQKTLTSPADAAGFLQGSRDSGGSSKDSCDTDDFVMVPAQFPGDLVAEAASAKPPPDSLLCSGSSLVASAGLESHGRTPSPSPTCSSSPSPSGRPGPFSSNRYGASVPIPVPTQVHNYQRIEQNLQSPTQQQTARSSAIRRSGSTTPLGFGRASPSPPSHTDGAMLARKLSLGGGRPYTPSPQVGTIPERPSWSRVPSPQGADVRVGRSPRPGSSVPEHSPRTTGLGCRLHSAPNLSDFHVVRPKLPKPPTDPLGATFSPPQTSAPQPCPGLQSCRPLRGSPKLPDFLQRSPLPPILGSPTKAGPSFDFPKTPSSQNLLTLLARQGVVMTPPRNRTLPDLSEASPFHGQQLGSGLRPAEDTRGPFGRSFSTSRITDLLLKAAFGTQASDSGSTDSLQEKPMEIAPSAGFGGTLHPGARGGGASSPAPVVFTVGSPPSGATPPQSTRTRMFSVGSSSSLGSTGSSSARHLVPGACGEAPELSAPGHCCSLADPLAANLEGAVTFEAPDLPEETLMEQEHTETLHSLRFTLAFAQQVLEIAALKGSASEAAGGPEYQLQESVVADQISQLSREWGFAEQLVLYLKVAELLSSGLQTAIDQIRAGKLCLSSTVKQVVRRLNELYKASVVSCQGLSLRLQRFFLDKQRLLDGIHGVTAERLILSHAVQMVQSAALDEMFQHREGCVPRYHKALLLLEGLQHTLTDQADIENIAKCKLCIERRLSALLSGVYA
In the case of B2, the binding result with ATG14-GFP is “binds”.

B3: ATG13 (endogenous, MEF cells) (protein, UniProt Q91YI1 1-516)
chain: METELSSQDRKDLDKFIKFFALKTVQVIVQARLGEKICTRSSSSPTGSDWFNLAIKDIPEVTHEAKKALSGQLPAVGRSMCVEISLKTSEGDSMELEIWCLEMNEKCDKEIKVSYTVYNRLSLLLKSLLAITRVTPAYRLSRKQGHEYVILYRIYFGEVQLNGLGEGFQTVRVGTVGTPVGTLTLSCAYRINLAFMSTRQFERTPPIMGIIIDHFVDRPYPSSSPMHPCNYRTAEDAGVAYPSVEDSQEVCTTSFSTSPPSQLSSSRLSYQPAVLGLGSADLAYPVVFTAGLNTTHAHQLMVPGKEGGVTLAPSHPTHGAQADPERLVMHMPSDGTHCAATPSSSEDTETVSNSSEGRASPHDILETIFVRKVGAFVNKPINQVTVTSLDIPFAMFAPKNLELEDADPMVNPPESPETTSPLHGSLHSDGSSGGSGGSTHDDFVMIDFKPAFSKDDILPMDLGTFYREFQNPPQLSSLSIDFGAQSMAEDLDSLPEKLAVHEKNVREFDAFVETLQ
Turning to B3, the binding entry in assay [1] was “binds”.
